Reference: the supplement of paper PMC10338343
± gives the standard deviation. This is a selection; strong and weak results do not stand in their true shares. Many of these values have a large error.

These sequences were tested on MIWI (PIWIL1) piRISC loaded with Kctd7 piRNA (30 nt) (assay: pre-steady-state target cleavage rate (min^-1); MIWI and MILI are mouse PIWI proteins and EfPiwi is from a freshwater sponge; tags in brackets are library labels; higher = faster piRNA-guided slicing of the target). Conditions: guide: Kctd7 piRNA 5'p-UGUUAAUCUCUCAGAGAAGGUGACAGUGAU; auxiliary factor: 500 nM mouse GTSF1.
Outline: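 Cleave-'n-Seq: a transcribed, DNA-blocked target RNA library (0.1 nM) was mixed with 1 nM active affinity-purified piRISC carrying one synthetic guide, with or without 500 nM GTSF1 partner protein, in HEPES–potassium acetate buffer at 33 °C for 0–8 or 0–960 min. Uncleaved targets were sequenced and normalised to depth and to weakly complementary targets. Three trials were pooled, and k3 was capped at 0.0001 min^-1. The pre-steady-state cleavage rate came from a burst-and-steady-state fit.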
UUCACUGUCUGGUUCUCUGAGAGAUUUUGA was tested, and the “pre-steady-state target cleavage rate” value was 0.000926 ± 0.0095. In the case of UACACUGUCACCUUCUCUGAGUCAUAUUGA, the “pre-steady-state target cleavage rate” value is reported as 0.00157 ± 0.0054. With UAGUGACAGUGGAACUCUGAGAGUUUUACA the “pre-steady-state target cleavage rate” value was 0.000399 ± 0.023. For UAGUGACAGUGGAAGAGUGAGCGAUUAACA, the “pre-steady-state target cleavage rate” value was 0.000349 ± 0.01. For UAGUGACACACCUUCUGAGAGAGAUUAAGA, the “pre-steady-state target cleavage rate” value was 0.0042 ± 0.0048. With UAGUGUCACACCUUCUCUGAGAGAUAUUGA the “pre-steady-state target cleavage rate” value was 0.00616 ± 0.0033. UUGACUGUCACGUUCUCUGAGAGAUUAACA was tested, and the “pre-steady-state target cleavage rate” value was 0.711 ± 0.037. “UAGACUGUCACCUUCUCUGAGUCUAAUUGA [g10:g27:cont:t1A]” was tested, and the “pre-steady-state target cleavage rate” value was 0.000439 ± 0.0087. UAGUGACAGUGCUUCUCUGAGAGAUUACA was tested, and the “pre-steady-state target cleavage rate” value was 0.000168 ± 0.014. In the case of UAGUGACAGACGUUCUCUGACAGAUUAACA, the “pre-steady-state target cleavage rate” value is reported as 0.000115 ± 0.058. For “UAGUGACUCACCUUCUCUGAGAGUAAUUGA [g8:g23:cont:t1A]”, the “pre-steady-state target cleavage rate” value was 0.00172 ± 0.0051. AUCACAGUCACCAUCUCUGAGAGAUUAACA was tested, and the “pre-steady-state target cleavage rate” value was 0.771 ± 0.036. With UAGUGACAGUCCUAGACUGAGAGAUUAACA the “pre-steady-state target cleavage rate” value was 0.000202 ± 0.024. With UAGUGACAGACCUUCUCUGACUCAUUUUGA the “pre-steady-state target cleavage rate” value was 0.000205 ± 0.021. In the case of UAGUGACAGUGCUUCUCUGAGACAUUAUCA, the “pre-steady-state target cleavage rate” value is reported as 0.000121 ± 0.018. In the case of UAGACUGUCACCUUCUCUGUCUGAUUAACA, the “pre-steady-state target cleavage rate” value is reported as 0.000564 ± 0.0071. For UAGUGACACACCUUCUCUGACUCAUUUUGA, the “pre-steady-state target cleavage rate” value was 0.00106 ± 0.006. UAGUCUGUCACCUUCUCUGAGAGAAAUACA was tested, and the “pre-steady-state target cleavage rate” value was 0.0823 ± 0.015. For UAGUGACAGACCUUCACUGAGAGAAUAACA, the “pre-steady-state target cleavage rate” value was 0.00382 ± 0.0042. UAGUGACAGUCCUUCUCUCACAGAUUAACA was tested, and the “pre-steady-state target cleavage rate” value was 0.000592 ± 0.015. With UAGUGACAGACCUUCUCUCAGACAUUAACA the “pre-steady-state target cleavage rate” value was 0.00309 ± 0.0032. AUCACGUGUCACCUUCUCUGAGAGAUUAACA was tested, and the “pre-steady-state target cleavage rate” value was 0.63 ± 0.03. In the case of UUCACUGUCACCUUCUCUGAGCGAUUAACA, the “pre-steady-state target cleavage rate” value is reported as 0.13 ± 0.0091. UAGUGACAGUCCAUCUCUGAGAGAUUUACA was tested, and the “pre-steady-state target cleavage rate” value was 0.00224 ± 0.0037. For UAGUGACAGACCUUCACUCAGAGAUUAACA, the “pre-steady-state target cleavage rate” value was 0.00134 ± 0.0087. In the case of UAGUGACAGUGCUUCUCUCAGAGAUUAACA, the “pre-steady-state target cleavage rate” value is reported as 0.00163 ± 0.0051. With “UAGACUGUCACCUUCUCUCUCUCUAAUUGA [g13:g27:cont:t1A]” the “pre-steady-state target cleavage rate” value was < 0.0001. For UUCACUGUCACCUAGUCUGAGAGAUUUUGA, the “pre-steady-state target cleavage rate” value was 0.111 ± 0.03. In the case of UAGUGACAGUCCUUCUCAGAGUGAUUAACA, the “pre-steady-state target cleavage rate” value is reported as 0.00217 ± 0.005. UACUCUGUCACCUUCUGUGAGAGAUUAACA was tested, and the “pre-steady-state target cleavage rate” value was 0.533 ± 0.025. With UAGUGACAGAGGAUCUCUGAGAGAUUAACA the “pre-steady-state target cleavage rate” value was 0.000165 ± 0.017. For UAGUGACAGACCUUCUCUGAGUCAUUUUGA, the “pre-steady-state target cleavage rate” value was 0.000643 ± 0.012. UAGUGACACACCUUCUCACAGAGAUAUUGA was tested, and the “pre-steady-state target cleavage rate” value was 0.000794 ± 0.011. AUUCACUGUCACCUUCUCUGAGAGAUUAACA was tested, and the “pre-steady-state target cleavage rate” value was 0.737 ± 0.036. With UAGUGACAGACCUAGUCUGAGAGAUUAACA the “pre-steady-state target cleavage rate” value was 0.00247 ± 0.0044. In the case of UAGUGACUCACCUUCUCUGUCUGAUUUUGA, the “pre-steady-state target cleavage rate” value is reported as 0.000149 ± 0.052. For UAGUGACUCACGUUCUCUGACAGAUUAACA, the “pre-steady-state target cleavage rate” value was 0.00367 ± 0.0032. UAGUGUGUCUGGUUCUCUGAGAGAUUAAGA was tested, and the “pre-steady-state target cleavage rate” value was 0.00251 ± 0.0027. With “UAGUGAGUCACCUUCUCUGACUCUAAUUGA [g11:g24:cont:t1A]” the “pre-steady-state target cleavage rate” value was 0.0013 ± 0.0086. UAGUGACAGUGCUUCUCUGAGACAUUAACA was tested, and the “pre-steady-state target cleavage rate” value was 0.00283 ± 0.0031. In the case of UAGUGACAGUCCUUCUCUGUGUGAUUAACA, the “pre-steady-state target cleavage rate” value is reported as 0.00154 ± 0.0039. With UAGUGACACACGAUCUCUGAGAGAUUUUGA the “pre-steady-state target cleavage rate” value was 0.000246 ± 0.025. In the case of UAGUCUCACACCUUCUCUGAGAGAUUAUGA, the “pre-steady-state target cleavage rate” value is reported as 0.0207 ± 0.0066. With UAGUGACUCACCUUCUCUCAGAGAUUAUGA the “pre-steady-state target cleavage rate” value was 0.00158 ± 0.0092. In the case of UAGUGACAGUGGAAGUCUGGAGAUUAACA, the “pre-steady-state target cleavage rate” value is reported as 0.000778 ± 0.0037. In the case of UUGUGUGUCACCUUCUCUGAGAGAUUAACA, the “pre-steady-state target cleavage rate” value is reported as 0.571 ± 0.025. UUCUCUGUCACCUUCUCUGAGAGAUUAACA was tested, and the “pre-steady-state target cleavage rate” value was 0.585 ± 0.031. UAGUGACAGUGCUUCUCUGAGAGAUAUACA was tested, and the “pre-steady-state target cleavage rate” value was 0.0019 ± 0.0032. UACACAGUCACCAUCUCUGAGAGAUUAACA was tested, and the “pre-steady-state target cleavage rate” value was 0.833 ± 0.045. AUCACUGUCACCUGUCUCUGAGAGAUUAACA was tested, and the “pre-steady-state target cleavage rate” value was 0.651 ± 0.038. In the case of UAGUGACAGACCAUCUCUGACAGAUUAACA, the “pre-steady-state target cleavage rate” value is reported as 0.00263 ± 0.0043. With UAGUGACAGUGCUUCUCUGAGAGAUUAUGA the “pre-steady-state target cleavage rate” value was 0.000187 ± 0.013. For UAGUGACAGUGCUUCUCUGAGAGAAAAACA, the “pre-steady-state target cleavage rate” value was 0.00125 ± 0.0066. With UACACUGUCACCUUCUCUCUCAGAUUAAGA the “pre-steady-state target cleavage rate” value was 0.00214 ± 0.0081. With UAGUGACAGUGGAACUCUGAGUGAUAAACA the “pre-steady-state target cleavage rate” value was 0.000608 ± 0.022. With UUCACUGUCACCUUCUCUGAGUCUUAUUGA the “pre-steady-state target cleavage rate” value was 0.0021 ± 0.0048. UAGUGACUCACCUUCUCUCAGAGAUAUUGA was tested, and the “pre-steady-state target cleavage rate” value was 0.000828 ± 0.013. For UAGUGUGAGUCCUUCUCUGAGAGAUAUUGA, the “pre-steady-state target cleavage rate” value was 0.00158 ± 0.0051. With UAGUGACAGUGCUACUCUGAGAGAUUAACA the “pre-steady-state target cleavage rate” value was 0.000242 ± 0.0094. In the case of UAGUGACACACCUUCUUGAGAGAUUAACA, the “pre-steady-state target cleavage rate” value is reported as 0.00261 ± 0.006. UAGUCUGUGUCCUUCUCUGAGAGAUAUUGA was tested, and the “pre-steady-state target cleavage rate” value was 0.00175 ± 0.004. For UACACUGUCACCUUCACUGUGAGAUUAACA, the “pre-steady-state target cleavage rate” value was 0.116 ± 0.015. In the case of UAGUGACAGACCUUCUCAGAGAGAUUUUGA, the “pre-steady-state target cleavage rate” value is reported as 0.000912 ± 0.012. UAGUGACACACCUUCUCUGAGUAGAUUAACA was tested, and the “pre-steady-state target cleavage rate” value was 0.0017 ± 0.006. For UAGUGACAGUGCUUCUCUGAGAGAUUUAACA, the “pre-steady-state target cleavage rate” value was 0.00371 ± 0.0041. With UAGACUGUCACCUUCUCUGAGUCUUUAACA the “pre-steady-state target cleavage rate” value was 0.00131 ± 0.0054. With AUCACUGUCACCGUUCUCUGAGAGAUUAACA the “pre-steady-state target cleavage rate” value was 0.774 ± 0.052. With UAGUGAGUCACCUUGAGUGAGAGAUUUUGA the “pre-steady-state target cleavage rate” value was 0.000849 ± 0.012. For UAGUGACAGACGAUCUCUGAGAGAUUAACA, the “pre-steady-state target cleavage rate” value was 0.000754 ± 0.0077. With UAGUGACAGUGCUUCUCUGUCAGAUUAACA the “pre-steady-state target cleavage rate” value was 0.000325 ± 0.014. With UAGUGUCAGACCUUCUCUGAGAGAUAUUGA the “pre-steady-state target cleavage rate” value was 0.000416 ± 0.018.
